These are yes or no findings as the source states them, for the method shown. For some assays here: Binding calls can cover weak binding; strength is not graded here.

Assay [1] has as its target PAPP-A(P2-CCP4-C). The assay is described as follows: ELISA, chimera captured with polyclonal PAPP-A antibodies. In general terms: An ELISA detects its analyte on a solid surface through an enzyme-linked reagent.
The target of assay [2] is PAPP-A(P2-CCP2-C). The assay is described as above.
The target of assay [3] is PAPP-A(P2-CCP5-C). The description is as above.
In assay [4] the target is PAPP-A(P2-CCP3-4). The assay is described as above.
For assay [5], the target named is PAPP-A(P2-CCP3-C). The assay is described as above.
Assay [6] deals with PAPP-A(P2-LNR3). The description is as above.
Assay [7] addresses PAPP-A(P2-CCP1-C). Described as above.
Assay [8] addresses PAPP-A(dLNR3-C), mutant of human PAPP-A truncated on the N-terminal side of LNR3 (human). Kind of assay: ELISA.

B1: PAC1 (PAPP-A exosite antibody, scFv) (scFv)
scFv: EVQLLESGGGLVQPGGSLRLSCAASGFTFSSYAMSWVRQAPGKGLEWVSVITDMGRTTRYADSVKGRFTISRDNSKNTLYLQMNSLRAEDTAVYYCAKGLRQFDYWGQGTLVTVSSGGGGSGGGGSGGGGSTDIQMTQSPSSLSASVGDRVTITCRASQSISSYLNWYQQKPGKAPKLLIYHASQLQSGVPSRFSGSGSGTDFTLTISSLQPEDFATYYCQQYGGNPTTFGQGTKVEIKRAAAHHHHHHGAAEQKLISEEDLNGAA
notes: Selected from the Tomlinson I+J phage libraries and produced in E. coli HB2151; Purified scFv was used in SPR and cleavage assays; also called scFv PAC1; antibody PAC1
For B1, the binding result in assay [1] is “no binding”; in assay [2] it was “no binding”; in assay [3], “no binding”; in assay [4], “binds”; in assay [5], “no binding”; in assay [6], “no binding”. For the same molecule, the binding entry in assay [7] and in assay [8] was “no binding” each time.

The values above are taken from patent US20100310646A1 (AARHUS UNIVERSITET, published 2010).
